Data published in the supplement of paper PMC10849652.
The list shows a part of the results.

The chains behind the UniProt entries cited, without tags or fusion partners. Where a name states a change or a piece, a line headed by the entry shows the natural chain unless it says otherwise.
UniProt Q9BW85: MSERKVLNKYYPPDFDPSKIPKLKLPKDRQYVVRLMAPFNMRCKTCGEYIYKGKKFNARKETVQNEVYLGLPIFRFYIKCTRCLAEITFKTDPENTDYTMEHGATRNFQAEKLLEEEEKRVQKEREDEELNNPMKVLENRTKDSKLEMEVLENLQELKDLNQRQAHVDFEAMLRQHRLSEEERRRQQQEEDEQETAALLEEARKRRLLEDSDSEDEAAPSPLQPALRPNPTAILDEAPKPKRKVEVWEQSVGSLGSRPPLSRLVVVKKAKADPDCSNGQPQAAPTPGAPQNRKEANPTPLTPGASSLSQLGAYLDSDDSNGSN
UniProt Q14202: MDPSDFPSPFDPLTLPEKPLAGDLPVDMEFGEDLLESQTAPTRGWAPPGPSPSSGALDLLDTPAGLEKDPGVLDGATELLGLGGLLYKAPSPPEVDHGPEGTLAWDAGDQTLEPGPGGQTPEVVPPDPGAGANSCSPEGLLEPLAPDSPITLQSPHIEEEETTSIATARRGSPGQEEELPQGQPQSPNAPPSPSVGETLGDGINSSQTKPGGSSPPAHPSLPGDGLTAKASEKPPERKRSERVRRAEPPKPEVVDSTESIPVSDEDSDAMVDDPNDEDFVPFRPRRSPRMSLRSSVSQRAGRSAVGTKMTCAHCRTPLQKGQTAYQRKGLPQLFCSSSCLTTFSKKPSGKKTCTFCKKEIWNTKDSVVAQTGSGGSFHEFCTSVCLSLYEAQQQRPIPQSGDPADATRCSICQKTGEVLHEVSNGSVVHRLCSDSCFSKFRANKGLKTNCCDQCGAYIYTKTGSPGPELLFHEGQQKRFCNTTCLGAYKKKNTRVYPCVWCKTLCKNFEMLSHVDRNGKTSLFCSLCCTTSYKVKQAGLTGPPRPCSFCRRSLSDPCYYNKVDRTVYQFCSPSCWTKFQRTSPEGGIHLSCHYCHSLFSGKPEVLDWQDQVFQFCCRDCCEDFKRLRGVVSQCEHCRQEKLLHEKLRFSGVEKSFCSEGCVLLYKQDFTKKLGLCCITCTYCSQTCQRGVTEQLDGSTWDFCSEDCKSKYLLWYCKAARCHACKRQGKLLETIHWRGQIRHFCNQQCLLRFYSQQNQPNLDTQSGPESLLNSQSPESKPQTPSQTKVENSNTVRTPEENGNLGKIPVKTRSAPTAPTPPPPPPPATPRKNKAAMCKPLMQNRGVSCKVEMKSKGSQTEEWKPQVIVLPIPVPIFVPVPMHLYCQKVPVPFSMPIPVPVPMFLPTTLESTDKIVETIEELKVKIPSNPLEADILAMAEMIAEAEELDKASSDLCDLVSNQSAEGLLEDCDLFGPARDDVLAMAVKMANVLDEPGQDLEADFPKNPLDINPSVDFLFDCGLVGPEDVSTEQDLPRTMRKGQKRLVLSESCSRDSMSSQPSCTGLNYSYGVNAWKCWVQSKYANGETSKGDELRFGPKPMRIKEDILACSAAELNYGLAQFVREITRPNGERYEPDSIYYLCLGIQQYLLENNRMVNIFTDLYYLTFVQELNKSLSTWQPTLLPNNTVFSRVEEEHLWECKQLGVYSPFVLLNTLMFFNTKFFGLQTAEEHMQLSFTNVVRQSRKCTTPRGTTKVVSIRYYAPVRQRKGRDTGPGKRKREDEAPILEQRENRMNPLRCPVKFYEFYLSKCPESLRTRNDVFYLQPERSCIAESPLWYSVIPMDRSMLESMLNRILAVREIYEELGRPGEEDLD
UniProt P54577: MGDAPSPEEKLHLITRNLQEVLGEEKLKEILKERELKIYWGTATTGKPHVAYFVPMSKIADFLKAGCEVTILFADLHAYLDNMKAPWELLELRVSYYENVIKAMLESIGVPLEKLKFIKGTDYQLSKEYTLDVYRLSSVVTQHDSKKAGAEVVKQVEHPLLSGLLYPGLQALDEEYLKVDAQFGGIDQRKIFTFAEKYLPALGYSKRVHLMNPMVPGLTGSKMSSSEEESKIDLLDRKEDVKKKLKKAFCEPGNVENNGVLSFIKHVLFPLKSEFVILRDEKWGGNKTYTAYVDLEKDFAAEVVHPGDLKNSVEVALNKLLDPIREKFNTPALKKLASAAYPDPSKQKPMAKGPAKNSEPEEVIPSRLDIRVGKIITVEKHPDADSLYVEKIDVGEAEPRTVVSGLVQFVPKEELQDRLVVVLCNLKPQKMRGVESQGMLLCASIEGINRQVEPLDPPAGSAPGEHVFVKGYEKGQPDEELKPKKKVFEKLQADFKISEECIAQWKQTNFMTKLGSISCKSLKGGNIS
UniProt O95405: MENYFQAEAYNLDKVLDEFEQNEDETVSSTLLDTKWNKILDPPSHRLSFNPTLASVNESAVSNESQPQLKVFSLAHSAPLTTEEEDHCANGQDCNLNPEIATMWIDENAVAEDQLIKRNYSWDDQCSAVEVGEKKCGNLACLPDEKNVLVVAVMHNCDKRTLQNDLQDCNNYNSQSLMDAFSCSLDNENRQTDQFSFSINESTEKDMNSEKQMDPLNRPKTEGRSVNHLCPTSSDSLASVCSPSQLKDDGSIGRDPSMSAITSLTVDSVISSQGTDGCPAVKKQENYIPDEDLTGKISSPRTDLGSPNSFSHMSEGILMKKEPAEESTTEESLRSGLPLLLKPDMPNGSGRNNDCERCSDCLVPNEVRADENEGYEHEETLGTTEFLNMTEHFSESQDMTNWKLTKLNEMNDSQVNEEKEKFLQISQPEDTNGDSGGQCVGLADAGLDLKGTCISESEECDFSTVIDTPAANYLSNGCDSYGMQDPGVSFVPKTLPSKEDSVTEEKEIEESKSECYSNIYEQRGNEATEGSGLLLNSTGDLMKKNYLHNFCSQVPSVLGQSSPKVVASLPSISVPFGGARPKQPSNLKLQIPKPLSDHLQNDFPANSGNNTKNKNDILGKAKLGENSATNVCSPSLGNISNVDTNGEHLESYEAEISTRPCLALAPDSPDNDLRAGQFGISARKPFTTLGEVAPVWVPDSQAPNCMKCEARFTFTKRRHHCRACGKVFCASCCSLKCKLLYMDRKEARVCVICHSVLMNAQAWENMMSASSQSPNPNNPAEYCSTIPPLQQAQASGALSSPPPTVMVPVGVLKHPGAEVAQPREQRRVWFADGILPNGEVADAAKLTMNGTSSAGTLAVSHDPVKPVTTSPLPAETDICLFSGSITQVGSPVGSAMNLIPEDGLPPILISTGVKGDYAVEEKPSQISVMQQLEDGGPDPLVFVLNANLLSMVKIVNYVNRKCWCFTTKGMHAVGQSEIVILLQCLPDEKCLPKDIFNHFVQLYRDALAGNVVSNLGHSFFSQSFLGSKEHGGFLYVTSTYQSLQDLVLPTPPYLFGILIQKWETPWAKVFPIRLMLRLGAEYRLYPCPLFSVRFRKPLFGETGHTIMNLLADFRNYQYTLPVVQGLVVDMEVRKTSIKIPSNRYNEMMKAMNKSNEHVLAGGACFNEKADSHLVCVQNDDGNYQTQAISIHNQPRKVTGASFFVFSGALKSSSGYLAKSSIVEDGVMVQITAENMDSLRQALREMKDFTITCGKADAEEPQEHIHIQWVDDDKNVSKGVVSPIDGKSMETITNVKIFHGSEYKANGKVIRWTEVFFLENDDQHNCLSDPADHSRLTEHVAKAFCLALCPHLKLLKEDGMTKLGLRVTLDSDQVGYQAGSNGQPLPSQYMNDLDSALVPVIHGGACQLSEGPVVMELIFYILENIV
UniProt Q8WV99: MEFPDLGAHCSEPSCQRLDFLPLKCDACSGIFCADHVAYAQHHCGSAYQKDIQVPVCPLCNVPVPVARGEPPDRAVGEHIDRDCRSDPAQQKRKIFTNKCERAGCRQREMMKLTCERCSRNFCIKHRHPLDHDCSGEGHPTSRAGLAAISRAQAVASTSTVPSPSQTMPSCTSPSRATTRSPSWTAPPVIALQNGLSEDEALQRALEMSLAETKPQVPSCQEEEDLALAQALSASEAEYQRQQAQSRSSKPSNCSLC
UniProt P31946: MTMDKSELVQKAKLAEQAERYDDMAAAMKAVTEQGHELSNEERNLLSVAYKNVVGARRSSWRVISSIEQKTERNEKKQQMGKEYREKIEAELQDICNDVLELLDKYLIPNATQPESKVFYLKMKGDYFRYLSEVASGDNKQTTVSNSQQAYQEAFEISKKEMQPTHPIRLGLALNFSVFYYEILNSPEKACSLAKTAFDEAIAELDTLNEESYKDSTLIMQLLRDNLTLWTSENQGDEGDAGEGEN
UniProt P67809, whole entry, looked up: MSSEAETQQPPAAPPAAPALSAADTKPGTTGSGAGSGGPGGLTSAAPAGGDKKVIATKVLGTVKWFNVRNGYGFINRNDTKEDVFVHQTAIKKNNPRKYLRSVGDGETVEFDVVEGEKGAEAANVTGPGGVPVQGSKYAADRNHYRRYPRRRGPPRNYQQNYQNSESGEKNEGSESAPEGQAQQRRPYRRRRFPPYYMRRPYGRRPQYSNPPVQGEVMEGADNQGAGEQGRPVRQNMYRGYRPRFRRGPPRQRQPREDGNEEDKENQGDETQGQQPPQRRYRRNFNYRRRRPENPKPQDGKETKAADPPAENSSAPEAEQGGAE
UniProt Q5VVQ6: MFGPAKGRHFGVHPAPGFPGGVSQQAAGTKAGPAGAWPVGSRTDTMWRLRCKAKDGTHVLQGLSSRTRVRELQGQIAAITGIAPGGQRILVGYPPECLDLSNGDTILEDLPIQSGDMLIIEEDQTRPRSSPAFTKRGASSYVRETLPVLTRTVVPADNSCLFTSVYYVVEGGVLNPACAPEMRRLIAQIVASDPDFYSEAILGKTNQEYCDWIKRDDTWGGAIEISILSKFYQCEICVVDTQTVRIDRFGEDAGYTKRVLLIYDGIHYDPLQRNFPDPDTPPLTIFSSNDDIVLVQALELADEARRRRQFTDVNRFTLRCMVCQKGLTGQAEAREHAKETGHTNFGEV
UniProt Q9HAV4: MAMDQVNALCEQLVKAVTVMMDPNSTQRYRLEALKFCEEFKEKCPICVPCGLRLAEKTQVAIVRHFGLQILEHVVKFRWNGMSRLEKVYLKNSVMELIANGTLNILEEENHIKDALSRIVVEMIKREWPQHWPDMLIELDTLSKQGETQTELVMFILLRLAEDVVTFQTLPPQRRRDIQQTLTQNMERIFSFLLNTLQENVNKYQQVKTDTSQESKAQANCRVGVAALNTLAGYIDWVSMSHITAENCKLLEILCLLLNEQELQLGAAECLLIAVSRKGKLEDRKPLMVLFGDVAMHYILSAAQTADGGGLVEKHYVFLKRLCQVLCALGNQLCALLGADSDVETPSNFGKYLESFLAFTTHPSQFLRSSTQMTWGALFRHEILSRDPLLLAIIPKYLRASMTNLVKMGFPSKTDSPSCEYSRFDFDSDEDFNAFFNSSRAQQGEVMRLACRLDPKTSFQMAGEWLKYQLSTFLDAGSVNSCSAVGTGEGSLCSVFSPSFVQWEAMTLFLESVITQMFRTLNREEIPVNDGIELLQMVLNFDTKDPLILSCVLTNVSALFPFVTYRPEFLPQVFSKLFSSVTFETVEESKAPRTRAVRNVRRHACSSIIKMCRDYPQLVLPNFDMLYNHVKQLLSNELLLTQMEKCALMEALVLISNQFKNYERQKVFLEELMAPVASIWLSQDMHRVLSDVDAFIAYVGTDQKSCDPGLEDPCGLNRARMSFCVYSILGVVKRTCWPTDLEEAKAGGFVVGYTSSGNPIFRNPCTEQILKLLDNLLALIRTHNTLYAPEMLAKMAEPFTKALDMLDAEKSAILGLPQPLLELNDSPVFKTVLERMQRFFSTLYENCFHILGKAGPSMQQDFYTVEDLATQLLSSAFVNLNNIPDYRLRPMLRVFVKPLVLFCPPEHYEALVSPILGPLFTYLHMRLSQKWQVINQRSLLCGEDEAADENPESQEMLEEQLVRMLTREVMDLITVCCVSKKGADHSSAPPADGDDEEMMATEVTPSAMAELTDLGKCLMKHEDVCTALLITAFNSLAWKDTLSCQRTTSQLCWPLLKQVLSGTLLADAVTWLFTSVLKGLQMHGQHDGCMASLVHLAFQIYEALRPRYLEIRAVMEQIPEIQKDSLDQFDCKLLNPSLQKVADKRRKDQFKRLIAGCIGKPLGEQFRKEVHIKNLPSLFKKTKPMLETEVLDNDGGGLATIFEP
UniProt P63104: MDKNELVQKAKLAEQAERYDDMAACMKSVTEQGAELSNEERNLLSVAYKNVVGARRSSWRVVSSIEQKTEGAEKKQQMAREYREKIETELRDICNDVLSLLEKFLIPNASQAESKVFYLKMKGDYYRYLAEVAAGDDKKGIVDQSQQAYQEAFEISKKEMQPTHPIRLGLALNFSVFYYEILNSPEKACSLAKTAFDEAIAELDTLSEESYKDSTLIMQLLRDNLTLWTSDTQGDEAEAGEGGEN
UniProt Q6FIF0: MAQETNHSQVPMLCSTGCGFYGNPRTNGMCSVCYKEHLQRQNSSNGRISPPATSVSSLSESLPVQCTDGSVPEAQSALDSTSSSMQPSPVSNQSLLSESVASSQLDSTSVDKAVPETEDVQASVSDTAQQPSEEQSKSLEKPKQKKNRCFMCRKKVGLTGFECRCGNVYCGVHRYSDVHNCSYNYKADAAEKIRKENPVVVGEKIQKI

The targets below were run with CC1=C(C=C(C=C1)NC(=O)C2=CC(=CC=C2)N(C)C)NC(=O)C3=CC=C(C=C3)O (assay: log2 fold change, soluble protein after heating vs DMSO (PISA); higher = thermal stabilisation; K562 cells, 10 uM, 30 min; active = over 0.2 and 3.5 SD of the protein, either way, in both replicates (recomputed)).
Procedure, shortened: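 Soluble protein was quantified by TMTpro 16plex LC-MS/MS after channel sums were equalised. It was obtained as the supernatant after 21,000xg for 90 min from pooled aliquots of K562 cells (2×10^6 cells/mL, 10 μM compound, 30 min) heated for 3 min across 48°C-58°C and extracted in PBS with 0.5% NP-40 at 4°C. Thermal stability values are relative to control samples and come from duplicates. They are given as log2 fold changes.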

Row | Target | log2 fold change
1 | YJU2 (UniProt Q9BW85) | inactive: -0.051
2 | ZFAND5 (UniProt O76080) | inactive: 0.034
3 | ZNF24 (UniProt P17028) | inactive: 0.008
4 | ZFPL1 (UniProt O95159) | inactive: 0.094
5 | ZMYM3 (UniProt Q14202) | inactive: 0.056
6 | XRCC5 (UniProt P13010) | inactive: -0.08
7 | ZMAT2 (UniProt Q96NC0) | inactive: 0
8 | YARS (UniProt P54577) | inactive: -0.025
9 | YIPF4 (UniProt Q9BSR8) | inactive: 0.025
10 | ZFP91 (UniProt Q96JP5) | inactive: 0.036
11 | XRCC6 (UniProt P12956) | inactive: -0.051
12 | YY1 (UniProt P25490) | inactive: -0.012
13 | ZFYVE9 (UniProt O95405) | inactive: -0.019
14 | XPNPEP3 (UniProt Q9NQH7) | inactive: 0.024
15 | ZFAND2B (UniProt Q8WV99) | inactive: 0.01
16 | ZDHHC17 (UniProt Q8IUH5) | inactive: 0.01
17 | YWHAB (UniProt P31946) | inactive: -0.008
18 | XPO1 (UniProt O14980) | inactive: -0.063
19 | ZNF143 (UniProt P52747) | inactive: 0.023
20 | YBX1 (UniProt P67809) | inactive: 0.011

Row | Target | log2 fold change
21 | ZER1 (UniProt Q7Z7L7) | inactive: -0.059
22 | ZDHHC14 (UniProt Q8IZN3) | inactive: 0.033
23 | YWHAQ (UniProt P27348) | inactive: -0.023
24 | YAE1 (UniProt Q9NRH1) | inactive: 0.009
25 | ZC3HC1 (UniProt Q86WB0) | inactive: -0.209
26 | ZC3H18 (UniProt Q86VM9) | inactive: -0.02
27 | YOD1 (UniProt Q5VVQ6) | inactive: -0.028
28 | YIPF5 isoform 3 (UniProt Q969M3) | inactive: -0.138
29 | YIPF6 (UniProt Q96EC8) | inactive: 0.024
30 | XPO5 (UniProt Q9HAV4) | inactive: -0.039
31 | YWHAZ (UniProt P63104) | inactive: 0.011
32 | XPO6 (UniProt Q96QU8) | inactive: -0.221
33 | YLPM1 (UniProt P49750) | inactive: -0.023
34 | ZDHHC5 (UniProt Q9C0B5) | inactive: -0.007
35 | XPNPEP1 isoform 3 (UniProt Q9NQW7) | inactive: -0.024
36 | ZNF217 (UniProt O75362) | inactive: 0.006
37 | ZFAND6 (UniProt Q6FIF0) | inactive: 0.026
38 | ZC3H8 (UniProt Q8N5P1) | inactive: 0.03
39 | YBX3 isoform 2 (UniProt P16989) | inactive: 0.105

Copied from the list:
In log2 fold change, ZNF217 (UniProt O75362) is listed with inactive: 0.006
In log2 fold change, XRCC5 (UniProt P13010) is listed with inactive: -0.08
In log2 fold change, YBX1 (UniProt P67809) is listed with inactive: 0.011
